# Data reported in patent US10702506B2, “Small molecule inhibitors of pendrin ion exchange and pharmaceutical compositions” (THE REGENTS OF THE UNIVERSITY OF CALIFORNIA, priority 2016, dated 2020).
# For at least one compound, name, drawing or mass did not settle the structure.
# Legend:
# Slc26a3 (CLD/DRA) = target: T1, Slc26a3 (CLD/DRA) (Mus musculus, UniProt Q9WVC8); assay: CLD YFP quenching assay in COS-7 cells (102-mM SCN− gradient); format: cell-based, murine; conditions: 25 μM
# T1 construct: myc; host or cells: COS-7 fibroblasts, transient (Lipofectamine 2000), with YFP
# T1 sequence (Q9WVC8 1-757): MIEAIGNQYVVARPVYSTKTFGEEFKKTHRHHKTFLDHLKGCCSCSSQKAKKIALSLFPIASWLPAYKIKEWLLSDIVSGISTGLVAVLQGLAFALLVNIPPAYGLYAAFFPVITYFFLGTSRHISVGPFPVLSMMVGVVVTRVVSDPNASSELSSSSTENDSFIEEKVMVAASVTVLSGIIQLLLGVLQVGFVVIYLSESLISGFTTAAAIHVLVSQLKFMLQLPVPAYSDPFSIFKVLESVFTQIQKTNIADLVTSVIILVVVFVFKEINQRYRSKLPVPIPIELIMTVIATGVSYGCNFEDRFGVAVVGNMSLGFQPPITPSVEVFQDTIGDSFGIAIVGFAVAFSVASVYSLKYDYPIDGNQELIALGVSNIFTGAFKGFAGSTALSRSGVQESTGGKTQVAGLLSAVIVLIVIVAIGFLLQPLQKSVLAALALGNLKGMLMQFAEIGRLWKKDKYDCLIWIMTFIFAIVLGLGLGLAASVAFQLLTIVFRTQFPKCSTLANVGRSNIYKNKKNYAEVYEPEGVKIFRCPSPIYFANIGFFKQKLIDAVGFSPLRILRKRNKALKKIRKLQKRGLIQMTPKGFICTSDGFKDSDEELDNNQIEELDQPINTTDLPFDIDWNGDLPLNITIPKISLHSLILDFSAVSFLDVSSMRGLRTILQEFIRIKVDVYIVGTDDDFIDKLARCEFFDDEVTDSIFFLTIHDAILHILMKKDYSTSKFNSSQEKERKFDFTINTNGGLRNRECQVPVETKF
# pendrin = target: T2, pendrin (Homo sapiens, UniProt O43511); assay: YFP (EYFP-HIF) fluorescence quenching assay of pendrin-mediated Cl− exchange (SCN−, I−, NO3−) in FRT cells; high-throughput screen; format: cell-based; parameters: expressed in transfected cells
# T2 sequence (O43511 1-780): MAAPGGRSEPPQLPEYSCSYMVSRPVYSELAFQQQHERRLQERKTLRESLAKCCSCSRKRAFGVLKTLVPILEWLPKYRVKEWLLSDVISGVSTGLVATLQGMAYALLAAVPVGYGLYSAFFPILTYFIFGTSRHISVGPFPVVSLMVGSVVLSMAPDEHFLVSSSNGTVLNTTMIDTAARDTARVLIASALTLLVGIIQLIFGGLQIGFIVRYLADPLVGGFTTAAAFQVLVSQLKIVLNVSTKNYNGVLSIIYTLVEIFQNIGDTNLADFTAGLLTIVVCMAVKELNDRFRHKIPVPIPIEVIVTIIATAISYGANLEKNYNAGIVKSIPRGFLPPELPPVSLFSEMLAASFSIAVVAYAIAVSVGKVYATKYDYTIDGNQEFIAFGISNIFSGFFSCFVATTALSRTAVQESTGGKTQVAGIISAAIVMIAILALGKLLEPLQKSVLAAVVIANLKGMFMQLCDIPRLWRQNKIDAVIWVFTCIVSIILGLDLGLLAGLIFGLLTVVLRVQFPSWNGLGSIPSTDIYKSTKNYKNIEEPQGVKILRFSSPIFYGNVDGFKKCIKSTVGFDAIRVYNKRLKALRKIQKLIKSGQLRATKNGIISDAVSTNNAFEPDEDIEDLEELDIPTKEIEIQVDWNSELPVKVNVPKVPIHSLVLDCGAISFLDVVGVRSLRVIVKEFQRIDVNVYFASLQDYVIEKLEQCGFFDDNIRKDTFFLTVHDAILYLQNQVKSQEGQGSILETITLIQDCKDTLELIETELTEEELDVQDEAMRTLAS
# Procedure: Fischer rat thyroid (FRT) cells were cultured in Kaign's modified Ham's F12 medium supplemented with 10% FBS, 2 mM L-glutamine, 100 U/ml penicillin, […], […] myo-inositol and […] ascorbic acid. For high-throughput screening, FRT cells were stably transfected with EYFP-H148Q/I152L/F46L (EYFP-HIF; in pcDNA3.1/Hygro (+)), isolated using 0.25 mg/ml hygromycin B, and then transfected with pcDNA3.1 (+) encoding human pendrin with clonal cell lines selected using 0.5 mg/ml G418.
# High-throughput screening was performed using a semi-automated screening platform (Beckman, Fullerton, Calif.) configured as described. […] After 10 min incubation with test compound, plates were transferred to a Tecan Infinite M1000 plate reader (Tecan, Morrisville, N.C.) for fluorescence assay of pendrin activity. The assay duration was 10 s with initial fluorescence intensity recorded for 2 s prior to addition of 100 μl of NaSCN-substituted PBS (137 mM NaCl replaced with NaSCN). […] In some experiments Cl^− exchange for I^− or NO3^− was measured similarly using NaI and NaNO3-substituted PBS. […]
# FRT cells were chosen for screening due to their low intrinsic permeability to anions that are transported by pendrin. […] PDSinh-A01 land PDSinh-C01 decreased pendrin-mediated Cl^−/SCN^− and Cl^−/I^− exchange in a concentration-dependent manner, as measured by YFP fluorescence quenching. […]
smiles,measurement,setting,value
Cc1n[nH]c(-c2cc(S(=O)(=O)NC3CCCc4ccccc43)c(C)s2)c1C (stereo not drawn) [PDSinh-C01],inhibition of Slc26a3 (CLD/DRA) transport activity,Slc26a3 (CLD/DRA),did not significantly inhibit
same,"time at which ~IC50 (half inhibition) was displayed, inhibition kinetics","pendrin; Cl−/SCN− exchange, 10 μM added for indicated times",5 min
same,reversibility of inhibition by washout,pendrin; washout,reversible
